Source: publication doi:10.1101/2021.09.21.461241

Assays:
MBP-OsSAPK10 (rice) = molecular target: T1, MBP-OsSAPK10 (rice) (UniProt Q75H77); experiment: pull-down
T1 sequence: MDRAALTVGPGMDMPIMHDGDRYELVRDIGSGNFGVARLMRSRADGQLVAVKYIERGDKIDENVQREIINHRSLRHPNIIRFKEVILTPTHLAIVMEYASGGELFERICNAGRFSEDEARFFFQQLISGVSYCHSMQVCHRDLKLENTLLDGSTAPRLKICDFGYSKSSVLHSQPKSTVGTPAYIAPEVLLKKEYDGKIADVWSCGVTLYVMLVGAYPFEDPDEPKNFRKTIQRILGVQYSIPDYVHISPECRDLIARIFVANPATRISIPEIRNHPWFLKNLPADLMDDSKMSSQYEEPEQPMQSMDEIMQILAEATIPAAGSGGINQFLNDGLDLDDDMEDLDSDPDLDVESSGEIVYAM

[1] = molecular target: T2, OsSAPK10 fused with the N-terminus of YFP (BiFC construct) (rice) (UniProt Q75H77); experiment: split reporter
T2 sequence: T1 sequence

OsSAPK10-GFP (rice) = molecular target: T3, OsSAPK10-GFP (rice) (UniProt Q75H77); experiment: co-IP
T3 sequence: T1 sequence

Substance: GST-OsbZIP86 (rice (Oryza sativa L.))
- binding (MBP-OsSAPK10 (rice)): binds

Substance: OsbZIP86 fused with the C-terminus of YFP (BiFC construct) (rice (Oryza sativa L.))
- binding [1]: binds

Substance: OsbZIP86-FLAG (rice (Oryza sativa L.))
- binding (OsSAPK10-GFP (rice)): binds

These are yes or no findings as the source states them, for the method shown. Binding calls can cover weak binding; strength is not graded here. Where a sequence is shown, tags or fusion partners need not be part of it. For part of these data: In cells and extracts the contact can be indirect.
